Data: the supplement of paper PMC7661543
± gives the standard deviation of the averaged measurements. Differences between knockout arms are mostly noise.

Test system: HCC-38
Experiment: relative cell number vs DMSO control (72 h) (% of DMSO); higher = less growth inhibition (more cells)
Experimental: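 QMAP-Seq: a pool of 5 breast cancer cell lines (ZR-75-1, SKBR3, HCC-38, MDA-MB-231, BT-20), each carrying 12 doxycycline-inducible Cas9 sgRNA perturbations (11 knockouts plus non-targeting sgNT), was treated with compounds for 72 h at four 10-fold doses (10 nM-10 uM or 1 nM-1 uM range). Barcodes were amplified and sequenced, and cell number was interpolated from 293T spike-in standard curves. The result is expressed as % of the median of DMSO wells. Two biological replicates.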

[1] = sgRNA knockout: sgATF3, 1000 nM
[2] = sgRNA knockout: sgATF3, 10000 nM
[3] = sgRNA knockout: sgATF4, 1000 nM
[4] = sgRNA knockout: sgATF4, 10000 nM
[5] = sgRNA knockout: sgATF6, 1000 nM
[6] = sgRNA knockout: sgATF6, 10000 nM
[7] = sgRNA knockout: sgATG7, 1000 nM
[8] = sgRNA knockout: sgATG7, 10000 nM
[9] = sgRNA knockout: sgERN1, 1000 nM
[10] = sgRNA knockout: sgERN1, 10000 nM
[11] = sgRNA knockout: sgHSF1, 1000 nM
[12] = sgRNA knockout: sgHSF1, 10000 nM
[13] = sgRNA knockout: sgHSF2, 1000 nM
[14] = sgRNA knockout: sgHSF2, 10000 nM
[15] = sgRNA knockout: sgKEAP1, 100 nM
[16] = sgRNA knockout: sgKEAP1, 1000 nM
[17] = sgRNA knockout: sgKEAP1, 10000 nM
[18] = sgRNA knockout: sgNFE2L2, 10 nM
[19] = sgRNA knockout: sgNFE2L2, 100 nM
[20] = sgRNA knockout: sgNFE2L2, 1000 nM
[21] = sgRNA knockout: sgNFE2L2, 10000 nM
[22] = sgRNA knockout: sgSLC35F2, 10 nM
[23] = sgRNA knockout: sgSLC35F2, 100 nM
[24] = sgRNA knockout: sgSLC35F2, 1000 nM
[25] = sgRNA knockout: sgSLC35F2, 10000 nM
[26] = sgRNA knockout: sgXBP1, 1000 nM
[27] = sgRNA knockout: sgXBP1, 10000 nM

`C=C1C(=O)O[C@H]2[C@H]1CC/C(C)=C/CC[C@@]1(C)O[C@@H]21` [Parthenolide] showed a relative cell number (sgRNA knockout: sgATF3, 10 nM) of 120 ± 26, a relative cell number (sgRNA knockout: sgATF3, 100 nM) of 109 ± 12 and a relative cell number [1] of 112 ± 26. It also gave a relative cell number [2] of 105 ± 5.5, a relative cell number (sgRNA knockout: sgATF4, 10 nM) of 116 ± 3.9 and a relative cell number (sgRNA knockout: sgATF4, 100 nM) of 98 ± 10. It also gave a relative cell number [3] of 110 ± 11, a relative cell number [4] of 111 ± 19 and a relative cell number (sgRNA knockout: sgATF6, 10 nM) of 126 ± 14. For the same compound, the relative cell number (sgRNA knockout: sgATF6, 100 nM) was 94.2 ± 24, the relative cell number [5] was 109 ± 5.2 and the relative cell number [6] was 118 ± 23. For the same compound, the relative cell number (sgRNA knockout: sgATG7, 10 nM) was 120 ± 1.9, the relative cell number (sgRNA knockout: sgATG7, 100 nM) was 92 ± 3.4 and the relative cell number [7] was 105 ± 14. The relative cell number [8] was 105 ± 6.2, the relative cell number (sgRNA knockout: sgERN1, 10 nM) was 110 ± 7.5 and the relative cell number (sgRNA knockout: sgERN1, 100 nM) was 109 ± 13. The relative cell number [9] was 106 ± 12, the relative cell number [10] was 113.9 ± 0.86 and the relative cell number (sgRNA knockout: sgHSF1, 10 nM) was 137 ± 35. It also gave a relative cell number (sgRNA knockout: sgHSF1, 100 nM) of 120 ± 26, a relative cell number [11] of 102 ± 5.3 and a relative cell number [12] of 106 ± 7.3. It also gave a relative cell number (sgRNA knockout: sgHSF2, 10 nM) of 126 ± 2.4, a relative cell number (sgRNA knockout: sgHSF2, 100 nM) of 108 ± 12 and a relative cell number [13] of 108 ± 14. The relative cell number [14] was 112.5 ± 0.14, the relative cell number (sgRNA knockout: sgKEAP1, 10 nM) was 129 ± 42 and the relative cell number [15] was 103 ± 5.2. It also gave a relative cell number [16] of 101 ± 29, a relative cell number [17] of 109 ± 4.9 and a relative cell number [18] of 131 ± 21. For the same compound, the relative cell number [19] was 101 ± 18, the relative cell number [20] was 102 ± 13 and the relative cell number [21] was 108 ± 6. It also gave a relative cell number [22] of 117 ± 12, a relative cell number [23] of 103 ± 4.7 and a relative cell number [24] of 101 ± 6.5. For the same compound, the relative cell number [25] was 105.2 ± 0.77, the relative cell number (sgRNA knockout: sgXBP1, 10 nM) was 118 ± 17 and the relative cell number (sgRNA knockout: sgXBP1, 100 nM) was 93.2 ± 0.97. For the same compound, the relative cell number [26] was 115 ± 12 and the relative cell number [27] was 113 ± 1.4.
`C[C@@]1(C(=O)Nc2ccc(F)nc2)CCCN1c1nc(Nc2cc(C3CC3)n[nH]2)c2cccn2n1` gave a relative cell number (sgRNA knockout: sgATF3, 10 nM) of 90.3 ± 3.3, a relative cell number (sgRNA knockout: sgATF3, 100 nM) of 83.3 ± 7.3 and a relative cell number [1] of 89.2 ± 3.5. The relative cell number [2] was 43 ± 12, the relative cell number (sgRNA knockout: sgATF4, 10 nM) was 83.3 ± 14 and the relative cell number (sgRNA knockout: sgATF4, 100 nM) was 80.6 ± 12. It also gave a relative cell number [3] of 87.8 ± 12, a relative cell number [4] of 44.1 ± 2.3 and a relative cell number (sgRNA knockout: sgATF6, 10 nM) of 100 ± 4.9. It also gave a relative cell number (sgRNA knockout: sgATF6, 100 nM) of 90 ± 13, a relative cell number [5] of 81.9 ± 3.3 and a relative cell number [6] of 41.3 ± 7.1. For the same compound, the relative cell number (sgRNA knockout: sgATG7, 10 nM) was 86.8 ± 13, the relative cell number (sgRNA knockout: sgATG7, 100 nM) was 88.7 ± 16 and the relative cell number [7] was 81.9 ± 5.5. It also gave a relative cell number [8] of 46.3 ± 0.84, a relative cell number (sgRNA knockout: sgERN1, 10 nM) of 84 ± 5.3 and a relative cell number (sgRNA knockout: sgERN1, 100 nM) of 94.7 ± 21. For the same compound, the relative cell number [9] was 87.8 ± 7.3, the relative cell number [10] was 43.02 ± 0.4 and the relative cell number (sgRNA knockout: sgHSF1, 10 nM) was 96.5 ± 1.5. The relative cell number (sgRNA knockout: sgHSF1, 100 nM) was 91 ± 19, the relative cell number [11] was 104 ± 1.8 and the relative cell number [12] was 41.2 ± 3.1. For the same compound, the relative cell number (sgRNA knockout: sgHSF2, 10 nM) was 87.4 ± 1.9, the relative cell number (sgRNA knockout: sgHSF2, 100 nM) was 84.7 ± 14 and the relative cell number [13] was 95.3 ± 3.1. It also gave a relative cell number [14] of 44.6 ± 2.2, a relative cell number (sgRNA knockout: sgKEAP1, 10 nM) of 86.9 ± 15 and a relative cell number [15] of 89.9 ± 15. The relative cell number [16] was 84.8 ± 9.4, the relative cell number [17] was 43.5 ± 3.6 and the relative cell number [18] was 82.8 ± 8.7. For the same compound, the relative cell number [19] was 82.7 ± 11, the relative cell number [20] was 81.7 ± 10 and the relative cell number [21] was 41.9 ± 3.3. For the same compound, the relative cell number [22] was 88.64 ± 0.58, the relative cell number [23] was 81.1 ± 5.4 and the relative cell number [24] was 80.1 ± 6.6. For the same compound, the relative cell number [25] was 48.6 ± 0.9, the relative cell number (sgRNA knockout: sgXBP1, 10 nM) was 84.3 ± 11 and the relative cell number (sgRNA knockout: sgXBP1, 100 nM) was 85.7 ± 23. The relative cell number [26] was 83.2 ± 7.6 and the relative cell number [27] was 45.8 ± 2.9.
With `CN1C(=O)C(Cc2c[nH]c3ccccc23)NC1=S` (configuration not stated) [Necrostatin1] the relative cell number (sgRNA knockout: sgATF3, 10 nM) was 115 ± 8.2, the relative cell number (sgRNA knockout: sgATF3, 100 nM) was 99.6 ± 8.2 and the relative cell number [1] was 99.5 ± 5.9. It also gave a relative cell number [2] of 99 ± 1.4, a relative cell number (sgRNA knockout: sgATF4, 10 nM) of 98.9 ± 2.8 and a relative cell number (sgRNA knockout: sgATF4, 100 nM) of 103 ± 2.5. The relative cell number [3] was 102 ± 14, the relative cell number [4] was 94.3 ± 8.4 and the relative cell number (sgRNA knockout: sgATF6, 10 nM) was 118 ± 17. For the same compound, the relative cell number (sgRNA knockout: sgATF6, 100 nM) was 94.3 ± 11, the relative cell number [5] was 87.7 ± 5.6 and the relative cell number [6] was 81.6 ± 3.5. It also gave a relative cell number (sgRNA knockout: sgATG7, 10 nM) of 105 ± 1.5, a relative cell number (sgRNA knockout: sgATG7, 100 nM) of 95 ± 9.1 and a relative cell number [7] of 100 ± 9.3. It also gave a relative cell number [8] of 97.1 ± 3.4, a relative cell number (sgRNA knockout: sgERN1, 10 nM) of 106.4 ± 0.84 and a relative cell number (sgRNA knockout: sgERN1, 100 nM) of 102 ± 6.3. It also gave a relative cell number [9] of 89.8 ± 4.2, a relative cell number [10] of 95.3 ± 17 and a relative cell number (sgRNA knockout: sgHSF1, 10 nM) of 81.5 ± 1.7. It also gave a relative cell number (sgRNA knockout: sgHSF1, 100 nM) of 90.9 ± 9.4, a relative cell number [11] of 91.3 ± 6.9 and a relative cell number [12] of 74 ± 3.2. For the same compound, the relative cell number (sgRNA knockout: sgHSF2, 10 nM) was 113 ± 7.9, the relative cell number (sgRNA knockout: sgHSF2, 100 nM) was 99.1 ± 2.6 and the relative cell number [13] was 91.5 ± 5.7. The relative cell number [14] was 87.9 ± 9.9, the relative cell number (sgRNA knockout: sgKEAP1, 10 nM) was 109 ± 6.4 and the relative cell number [15] was 99.4 ± 8. For the same compound, the relative cell number [16] was 88.3 ± 3.5, the relative cell number [17] was 83.3 ± 23 and the relative cell number [18] was 108 ± 9.5. It also gave a relative cell number [19] of 92.4 ± 1.1, a relative cell number [20] of 94.8 ± 14 and a relative cell number [21] of 91.7 ± 4.5. The relative cell number [22] was 102 ± 7.5, the relative cell number [23] was 92.4 ± 1.9 and the relative cell number [24] was 103 ± 10. It also gave a relative cell number [25] of 104 ± 14, a relative cell number (sgRNA knockout: sgXBP1, 10 nM) of 109 ± 3.5 and a relative cell number (sgRNA knockout: sgXBP1, 100 nM) of 93.7 ± 1.5. It also gave a relative cell number [26] of 101 ± 2.8 and a relative cell number [27] of 106 ± 6.8.
